Drawing on publication PMC4740771, “Nucleotide-dependent assembly of the peroxisomal receptor export complex” (Scientific Reports, 2016), this text covers binding for eight molecules.

One test concerns the target T1, Pex1pTPA (S. cerevisiae) (UniProt P24004).
T1 sequence: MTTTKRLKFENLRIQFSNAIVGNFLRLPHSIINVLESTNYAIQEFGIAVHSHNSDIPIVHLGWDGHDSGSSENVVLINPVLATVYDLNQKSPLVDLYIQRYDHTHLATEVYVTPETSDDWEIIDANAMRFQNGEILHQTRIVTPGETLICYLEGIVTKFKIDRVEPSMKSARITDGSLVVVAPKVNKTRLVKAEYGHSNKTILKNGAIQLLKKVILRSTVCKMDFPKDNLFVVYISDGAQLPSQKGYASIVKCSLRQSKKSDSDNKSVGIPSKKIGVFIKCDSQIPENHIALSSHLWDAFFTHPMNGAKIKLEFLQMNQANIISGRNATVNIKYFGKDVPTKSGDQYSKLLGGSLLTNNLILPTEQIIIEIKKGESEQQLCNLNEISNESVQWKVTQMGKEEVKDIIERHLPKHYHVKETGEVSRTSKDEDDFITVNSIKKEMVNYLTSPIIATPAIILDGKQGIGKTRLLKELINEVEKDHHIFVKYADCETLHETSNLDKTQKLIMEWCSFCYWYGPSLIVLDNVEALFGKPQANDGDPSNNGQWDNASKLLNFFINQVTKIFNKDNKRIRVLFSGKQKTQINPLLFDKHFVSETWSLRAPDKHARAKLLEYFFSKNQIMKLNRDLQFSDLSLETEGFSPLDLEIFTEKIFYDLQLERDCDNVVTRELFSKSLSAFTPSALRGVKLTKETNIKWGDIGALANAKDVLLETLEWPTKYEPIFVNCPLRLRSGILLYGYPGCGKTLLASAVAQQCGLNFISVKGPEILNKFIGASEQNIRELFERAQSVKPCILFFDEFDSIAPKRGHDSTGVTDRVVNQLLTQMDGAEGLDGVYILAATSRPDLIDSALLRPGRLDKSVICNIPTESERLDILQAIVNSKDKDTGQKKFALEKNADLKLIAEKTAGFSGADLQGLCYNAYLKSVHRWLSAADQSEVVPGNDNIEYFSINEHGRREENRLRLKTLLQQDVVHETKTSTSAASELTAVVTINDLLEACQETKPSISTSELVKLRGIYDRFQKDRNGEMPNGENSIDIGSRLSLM
The experiment in a line: co-IP; Pex1pTPA (Δpex6 cells with plasmid Pex6p or Pex6pWB) or Pex6pTPA (Δpex1 cells with plasmid Pex1p or Pex1pWB) isolated from 1% digitonin-solubilised total membranes on IgG-Sepharose, TEV protease eluate, immunoblot; 5 mM ATP.

For a further test, the target named is T2, Pex6pTPA (S. cerevisiae) (UniProt P33760).
T2 sequence: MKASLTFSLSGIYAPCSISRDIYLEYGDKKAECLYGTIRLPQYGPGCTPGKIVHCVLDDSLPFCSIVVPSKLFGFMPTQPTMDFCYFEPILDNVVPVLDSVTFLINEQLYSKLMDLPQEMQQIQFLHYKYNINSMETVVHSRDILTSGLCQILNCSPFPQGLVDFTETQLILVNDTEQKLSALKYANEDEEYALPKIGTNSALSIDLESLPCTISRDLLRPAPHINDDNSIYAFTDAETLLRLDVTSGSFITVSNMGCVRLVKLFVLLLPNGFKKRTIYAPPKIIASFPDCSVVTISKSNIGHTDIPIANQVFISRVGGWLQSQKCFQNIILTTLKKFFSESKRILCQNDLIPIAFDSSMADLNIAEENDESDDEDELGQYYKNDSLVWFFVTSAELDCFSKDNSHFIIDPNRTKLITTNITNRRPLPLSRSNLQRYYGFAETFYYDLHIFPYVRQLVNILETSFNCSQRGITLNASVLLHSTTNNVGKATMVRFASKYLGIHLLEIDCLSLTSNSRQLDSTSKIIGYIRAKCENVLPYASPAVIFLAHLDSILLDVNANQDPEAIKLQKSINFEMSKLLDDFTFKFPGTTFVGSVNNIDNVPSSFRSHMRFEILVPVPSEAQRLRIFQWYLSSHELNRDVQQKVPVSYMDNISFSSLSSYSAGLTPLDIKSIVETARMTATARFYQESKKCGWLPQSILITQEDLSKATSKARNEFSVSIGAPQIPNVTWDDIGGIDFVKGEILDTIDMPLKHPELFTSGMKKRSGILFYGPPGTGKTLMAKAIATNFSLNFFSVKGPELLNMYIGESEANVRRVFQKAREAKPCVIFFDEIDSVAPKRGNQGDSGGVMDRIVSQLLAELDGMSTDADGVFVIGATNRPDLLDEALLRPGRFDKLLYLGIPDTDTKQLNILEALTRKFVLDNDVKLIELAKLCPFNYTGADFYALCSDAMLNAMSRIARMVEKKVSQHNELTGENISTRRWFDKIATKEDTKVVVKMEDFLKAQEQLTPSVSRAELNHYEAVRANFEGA
The test is described as above.

Positions count from the first letter of the chain named. Names may count otherwise. No constants are given. Whether binding was seen depends on the method and setting. In cells and extracts the contact can be indirect. Some binding calls cover weakened binding; strength is not graded here.

B1: Pex12p (endogenous, yeast membranes) (protein, UniProt Q04370 1-399)
chain: MSFYSNLPSAGQSSRGSSTSGRNGVGLEPLYPTIFEIMSSQEIDSLLPASIRYLLANHLVANFPNRYTLRLNKYFFEWFQAIKGFVEWYHLKTYNSTFIDRFYGLQLFSSRDRNLALTQCLNPKGQSEWPQGLQLNQQQKSVIFLEKIILPYITAKLDEILEKISMNNIFSSDETENKWPKRAFLRIYPFIKKLLALSNLLVKLLFLTKRTGSVSLLQYLFKIEYTTVRPLSSELSGLKETKGMDNRLRKTNISSIFALMQGQLSIIPRFLTFMGSQFFPTFIFVLRVYQWWTTQDMTTKLQKRVNDLDEDIPRPPFSSHSDKTEDKEGVSEACPVCEKTVQNPCVLETGYVACYPCAISYLVNNEGHCPVTNKKLLGCTYNKHTNKWEVVTGIRKLLI
For B1, the binding entry in the test with Pex1pTPA (S. cerevisiae) and with Pex6pTPA (S. cerevisiae) was “binds” each time.

B2: Pex1p expressed from pRS416-Pex1p in Δpex1Pex6pTPA yeast (protein, UniProt P24004 1-1043)
chain: T1 sequence
For B2, in the test with Pex6pTPA (S. cerevisiae), the binding entry is recorded as “binds”.

B3: Pex1pWB (E798Q) expressed from pRS416 in Δpex1Pex6pTPA yeast (protein, UniProt P24004 1-1043)
chain: T1 sequence with E798Q
Take B3: the binding result with Pex6pTPA (S. cerevisiae) is reported as “binds”.

B4: Pex17p (endogenous, yeast membranes) (protein, UniProt P40155 1-199)
chain: MTSINSFPRNIDWPSNIGIKKIEGTNPTVNAIKGLLYNGGSIYAFLYFVIAMFVEPTLQKQYQQRNDFSLFVLLRLRRIIAQLQKRLVMTPVSSLGFNEQNNFVERSTQTSDDNIIREDNSHWAEMIYQLQNMKQELQYFNRSSGQPSESIDDFVFQIKMVTDQVELTDRSRAFSNKSRNIIQGIREIKGWFVNGQVPR
For the molecule B4, the binding result in the test with Pex1pTPA (S. cerevisiae) and with Pex6pTPA (S. cerevisiae) was “binds” in each case.

B5: Pex14p (endogenous, yeast membranes) (protein, UniProt P53112 1-341)
chain: MSDVVSKDRKALFDSAVSFLKDESIKDAPLLKKIEFLKSKGLTEKEIEIAMKEPKKDGIVGDEVSKKIGSTENRASQDMYLYEAMPPTLPHRDWKDYFVMATATAGLLYGAYEVTRRYVIPNILPEAKSKLEGDKKEIDDQFSKIDTVLNAIEAEQAEFRKKESETLKELSDTIAELKQALVQTTRSREKIEDEFRIVKLEVVNMQNTIDKFVSDNDGMQELNNIQKEMESLKSLMNNRMESGNAQDNRLFSISPNGIPGIDTIPSASEILAKMGMQEESDKEKENGSDANKDDNAVPAWKKAREQTIDSNASIPEWQKNTAANEISVPDWQNGQVEDSIP
As for B5, the binding result with Pex1pTPA (S. cerevisiae) and in the test with Pex6pTPA (S. cerevisiae) was “binds” throughout.

B6: Pex5p (endogenous, yeast membranes) (receptor, UniProt P35056 1-612)
chain: MDVGSCSVGNNPLAQLHKHTQQNKSLQFNQKNNGRLNESPLQGTNKPGISEAFISNVNAISQENMANMQRFINGEPLIDDKRRMEIGPSSGRLPPFSNVHSLQTSANPTQIKGVNDISHWSQEFQGSNSIQNRNADTGNSEKAWQRGSTTASSRFQYPNTMMNNYAYASMNSLSGSRLQSPAFMNQQQSGRSKEGVNEQEQQPWTDQFEKLEKEVSENLDINDEIEKEENVSEVEQNKPETVEKEEGVYGDQYQSDFQEVWDSIHKDAEEVLPSELVNDDLNLGEDYLKYLGGRVNGNIEYAFQSNNEYFNNPNAYKIGCLLMENGAKLSEAALAFEAAVKEKPDHVDAWLRLGLVQTQNEKELNGISALEECLKLDPKNLEAMKTLAISYINEGYDMSAFTMLDKWAETKYPEIWSRIKQQDDKFQKEKGFTHIDMNAHITKQFLQLANNLSTIDPEIQLCLGLLFYTKDDFDKTIDCFESALRVNPNDELMWNRLGASLANSNRSEEAIQAYHRALQLKPSFVRARYNLAVSSMNIGCFKEAAGYLLSVLSMHEVNTNNKKGDVGSLLNTYNDTVIETLKRVFIAMNRDDLLQEVKPGMDLKRFKGEFSF
In the case of B6, the binding entry with Pex1pTPA (S. cerevisiae) and in the test with Pex6pTPA (S. cerevisiae) was “binds” each time.

B7: Pex15p (endogenous, yeast membranes) (protein, UniProt Q08215 1-383)
chain: MAASEIMNNLPMHSLDSSLRDLLNDDLFIESDESTKSVNDQRSEVFQECVNLFIKRDIKDCLEKMSEVGFIDITVFKSNPMILDLFVSACDIMPSFTKLGLTLQSEILNIFTLDTPQCIETRKIILGDLSKLLVINKFFRCCIKVIQFNLTDHTEQEEKTLELESIMSDFIFVYITKMRTTIDVVGLQELIEIFIFQVKVKLHHKKPSPNMYWALCKTLPKLSPTLKGLYLSKDVSIEDAILNSIDNKIQKDKAKSKGKQRGVKQKIHHFHEPMLHNSSEEQVKVEDAFNQRTSTDSRLQSTGTAPRKKNNDITVLAGSFWAVLKHHFTRSVLNKNGLLLTGLLLLLCLKKYKSLMAIFKHVPAAFHTVYPQIVGLLKLLASI
Consider B7, for which the binding result in the test with Pex6pTPA (S. cerevisiae) is reported as “binds”.

B8: Pex18p (endogenous, yeast membranes) (receptor, UniProt P38855 1-283)
chain: MNSNRCQTNEVNKFISSTEKGPFTGRDNTLSFNKIGSRLNSPPILKDKIELKFLQHSEDLNQSRSYVNIRPRTLEDQSYKFEAPNLNDNETSWAKDFRYNFPKNVEPPIENQIANLNINNGLRTSQTDFPLGFYSQKNFNIASFPVVDHQIFKTTGLEHPINSHIDSLINAEFSELEASSLEEDVHTEEENSGTSLEDEETAMKGLASDIIEFCDNNSANKDVKERLNSSKFMGLMGSISDGSIVLKKDNGTERNLQKHVGFCFQNSGNWAGLEFHDVEDRIA
On to B8, for which the binding entry with Pex1pTPA (S. cerevisiae) and with Pex6pTPA (S. cerevisiae) was “binds” throughout.
